Record: PubChem BioAssay AID1259308 (NCATS, 2017)
The deposit covers about 59,000 reagents; below is an unselected part. About 1,510 of them (2.6%) count as active. 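Calls use total luciferase alone and ignore viability, so some active siRNAs may act by altering cell number.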 Entries without a mark were called inactive. Reagents against one gene are numbered here. Not all columns of the deposit are shown.

Screen: 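Genes whose loss raises luciferase production in HEK293 cells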 (primary screen)
Cell system: human HEK293 embryonic kidney cells stably expressing firefly luciferase (HEK-CMV-Luc2-Hygro)
Knock-down reagent: single siRNA against human genes, 0.8 pmol siRNA per well
Duration: 72 h
Read-out: 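Reporter luminescence and viable-cell signal on separate replicate plates, given as percent of non-targeting control and median/MAD z-scores, plus per-cell luciferase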
Scale: total luciferase, z-score and total luciferase, % of control: higher = more reporter protein produced
Active means: 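An siRNA counts as active if its total luciferase robust z-score exceeds 3; genes with two or more such siRNAs out of three were retested with fresh siRNAs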
Meaning of the calls: active = raised luciferase; inactive = no rise

GH2 (growth hormone 2) #1: total luciferase, z-score = 0.369; total luciferase, % of control = 89.2
GH2 (growth hormone 2) #2: total luciferase, z-score = 1.16; total luciferase, % of control = 105
GH2 (growth hormone 2) #3: total luciferase, z-score = 1.99; total luciferase, % of control = 121
RPL23P5 (ribosomal protein L23 pseudogene 5) #1: total luciferase, z-score = 0.655; total luciferase, % of control = 94.9
RPL23P5 (ribosomal protein L23 pseudogene 5) #2: total luciferase, z-score = -2.47; total luciferase, % of control = 32.7
RPL23P5 (ribosomal protein L23 pseudogene 5) #3: total luciferase, z-score = -2.74; total luciferase, % of control = 27.5
PPP2R2C (protein phosphatase 2 regulatory subunit Bgamma) #1: total luciferase, z-score = -0.252; total luciferase, % of control = 76.9
PPP2R2C (protein phosphatase 2 regulatory subunit Bgamma) #2: total luciferase, z-score = -0.669; total luciferase, % of control = 68.6
PPP2R2C (protein phosphatase 2 regulatory subunit Bgamma) #3: total luciferase, z-score = 0.534; total luciferase, % of control = 92.5
CCDC116 (coiled-coil domain containing 116) #1: total luciferase, z-score = 0.105; total luciferase, % of control = 84
CCDC116 (coiled-coil domain containing 116) #2: total luciferase, z-score = 0.344; total luciferase, % of control = 88.7
CCDC116 (coiled-coil domain containing 116) #3: total luciferase, z-score = -0.00155; total luciferase, % of control = 81.9

Single entries from above.
RPL23P5 (ribosomal protein L23 pseudogene 5) #2, total luciferase, z-score: -2.47
GH2 (growth hormone 2) #3, total luciferase, z-score: 1.99
